According to PubChem BioAssay AID743266 (National Center for Advancing Translational Sciences (NCATS), 2014):
About 310 (0.076%) of roughly 410,000 compounds were called active. This list was built around the results that the source calls inconclusive (neither active nor inactive); the mix of calls is not that of the screen. Calls follow the shape of the dose curve; as a rule, active = well fitted activation curve with a large enough effect; inconclusive = small, poorly fitted or top-dose-only effect, or another doubt; inactive = no such curve, though single readings can be large or run the other way. A potency beside an inconclusive call is a rough fit, not a confirmed value.
Also: nearly all actives have a fitted effect of over 55% in size.
Potency is read from the fitted curve at half-maximal effect.

By UniProt entry, the sequences of proteins in these tests, tags left out.
UniProt Q03431, whole entry, looked up: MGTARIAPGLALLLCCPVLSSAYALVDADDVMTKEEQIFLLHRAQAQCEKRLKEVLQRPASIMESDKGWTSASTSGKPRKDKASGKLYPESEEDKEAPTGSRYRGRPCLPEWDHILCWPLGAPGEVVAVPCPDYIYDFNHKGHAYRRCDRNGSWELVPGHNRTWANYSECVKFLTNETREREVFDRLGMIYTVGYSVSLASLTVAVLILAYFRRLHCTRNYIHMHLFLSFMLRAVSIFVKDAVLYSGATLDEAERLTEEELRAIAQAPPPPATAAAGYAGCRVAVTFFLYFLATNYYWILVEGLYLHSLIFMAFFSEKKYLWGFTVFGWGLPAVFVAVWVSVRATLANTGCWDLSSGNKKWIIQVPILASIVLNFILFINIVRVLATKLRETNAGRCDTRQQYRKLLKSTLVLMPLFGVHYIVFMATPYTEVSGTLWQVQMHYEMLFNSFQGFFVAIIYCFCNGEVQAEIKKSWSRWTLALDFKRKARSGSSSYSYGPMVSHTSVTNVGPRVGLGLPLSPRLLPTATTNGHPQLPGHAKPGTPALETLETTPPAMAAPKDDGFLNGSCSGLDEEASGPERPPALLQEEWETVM

What follows are compounds tested against Parathyroid hormone/parathyroid hormone-related peptide receptor (Homo sapiens) (UniProt Q03431) (assay: qHTS for PTHR1 Agonists: Primary Screen). Details: HEK293 GP2 PTHR1 cells, GloSensor cAMP luminescence, 1 h; activation: at 115 µM (top of the series) unless noted; series mostly up to 115 µM.
Method in brief: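 HEK-293-derived GP2 cells expressing PTHR1 and a GloSensor cAMP reporter, 3,000/well, plated overnight, given luciferin plus IBMX (each 0.5 mM as added) for 1 h at 37 °C, then compound for 1 h at 37 °C. Luminescence was read after 15 min at room temperature.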
For `COC(=O)C1C(=O)C2=C(CC1C)NC(C)=C(C(=O)OCc1ccc(OC)cc1)C2c1ccc(C)o1` (stereo not given), the activation was inconclusive: -24.1% [activator] [at 57.5 µM].
For `CSCCC(NS(=O)(=O)c1ccc2c(c1)oc(=O)n2C)C(=O)N1CCN(c2ccc(C(C)=O)cc2)CC1` (stereo not given), the activation was inconclusive: 44.4% [activator].
`C=CCn1c(SCCN2C(=O)c3ccccc3C2=O)nc2scc(-c3ccccc3)c2c1=O` was tested, and the Potency was “inactive”.
`COc1cc(/C=C(/C#N)c2nc3ccccc3[nH]2)ccc1OCc1ccc(C(=O)O)o1` was tested, and the Potency was inconclusive: 89.1 µM [activator, single point].
In the case of `COc1ccc2c(Sc3ccc(Cl)cc3)c(C(=O)N3CCC(C)CC3)[nH]c2c1`, the Potency is reported as inconclusive: 126 µM [activator, partial curve, poor fit].
With `Cn1c(=O)c2c(ncn2CC(=O)OCC(=O)NNC(=O)c2ccc(Cl)cc2)n(C)c1=O` the Potency was “inactive”.
In the case of `CCOc1ccc(Nc2ncnc3c2cnn3-c2ccc(F)cc2)cc1`, the Potency is reported as “inactive”.
In the case of `O=[N+]([O-])c1ccc(Nc2nc(N3CCOCC3)nc(N3CCOCC3)n2)cc1`, the activation is reported as inconclusive: 41.9% [activator].
For `CCOC(=O)c1[nH]c(C)c(C(=O)OC)c1C`, the Potency was inconclusive: 79.4 µM [activator, partial curve, poor fit].
`Cc1oc(-c2ccccc2)cc1C(=O)NC1CCN(Cc2ccccc2)CC1` was tested, and the Potency was “inactive”.
With `CCc1nc(Nc2ccc3c(c2)OCCO3)c2oc3ccccc3c2n1` the Potency was inconclusive: 3.16 µM [activator, single point].
In the case of `O=C1Nc2ccc(F)cc2C12OCCO2`, the Potency is reported as inconclusive: 79.4 µM [activator, single point].
For `Cc1ccc(N2CCN(C(=O)C3CCN(c4ncnc5c4nc4n5CCCCC4)CC3)CC2)c(C)c1`, the Potency was “inactive”.
With `COc1cc(C(C)=O)ccc1OCC(=O)OCC(=O)c1cc(C)n(CC2CCCO2)c1C` (stereo not given) the Potency was inconclusive: 141 µM [activator, single point].
With `CCCOc1ccc(C2c3c(oc4ccccc4c3=O)C(=O)N2CCN(CC)CC)cc1OC` (stereo not given) the activation was inconclusive: -30.9% [activator] [at 57.5 µM].
For `COc1ccccc1-n1c(N)c(C(N)=O)sc1=S`, the Potency was inconclusive: 25.1 µM [activator, partial curve].
In the case of `CC[C@@H](Nc1ncnc2c1oc1ccccc12)C(=O)O`, the Potency is reported as inconclusive: 50.1 µM [activator, partial curve, poor fit].
With `CCC(C)[C@H]1CNCCN1CCc1cccc(F)c1` (stereo not given in full) the Potency was inconclusive: 31.6 µM [activator, single point].
`CC1C/C(=N\NC(N)=S)c2cc(Cl)ccc2S1` (stereo not given) was tested, and the Potency was “inactive”.
With `COc1cccc(C(=O)N2CCCCC2CCN2CCCCC2)c1` (stereo not given) the Potency was inconclusive: 141 µM [activator, single point].
With `CSc1nc(-c2ccccc2)c(C#N)c(=O)[nH]1` the Potency was inconclusive: 141 µM [activator, single point].
With `CCC(NS(=O)(=O)c1ccc(C)cc1)C(=O)N1CCOCCOCCOCCOCC1` (stereo not given) the Potency was “inactive”.
With `CCc1ccc(-n2c(=O)c3sc4ccccc4c3n(CC(=O)N(CC)Cc3ccccc3)c2=O)cc1` the Potency was “inactive”.
For `CC(C)(C#CC(O)(c1ccccc1)c1ccccc1)N1CCCC1`, the Potency was inconclusive: 35.5 µM [activator, single point].
For `O=C(Nc1ccccc1F)c1ccc(Cn2nc(N3CCN(c4ccccc4)CC3)ccc2=O)o1`, the Potency was “inactive”.
With `O=C(Nc1cccc(Br)c1)N1CCN2CCCCC2C1` (stereo not given) the activation was inconclusive: 31.6% [activator].
`O=C(NCc1ccco1)c1ccc2c(c1)N(Cc1ccccc1)C(=O)c1ccccc1S2` was tested, and the Potency was inconclusive: 79.4 µM [activator, partial curve, poor fit].
For `CC(C)CN1CCN(Cc2cc(F)ccc2-n2cccn2)CC1CCO` (stereo not given), the activation was inconclusive: 41.1% [activator].
For `COCc1ccccc1C1=CC(=O)C[C@H](c2ccc(F)cc2)C1`, the Potency was “inactive”.
`C=CCn1c(SCC(=O)c2cc(C)n(C(C)COC)c2C)nc2sc(C)c(C)c2c1=O` (stereo not given) was tested, and the Potency was inconclusive: 0.891 µM [activator, full curve, poor fit].
`O=C(COc1ccccc1)NCC(=O)N/N=C/c1ccco1` was tested, and the activation was inconclusive: 33.1% [activator].
`COC(=O)c1ccccc1NC(=O)c1cccc(NC(=O)c2ccc(Br)o2)c1C` was tested, and the Potency was inconclusive: 39.8 µM [activator, single point].
`CN=c1c([N+](=O)[O-])nn(-c2ccc3c(c2)OCCO3)n1O` was tested, and the Potency was “inactive”.
With `CCOc1ccc(-n2c(SCC(=O)NCc3ccccc3)nc3n[nH]c(C)c3c2=N)cc1` the Potency was inconclusive: 141 µM [activator, partial curve, poor fit].
For `O=S(Cc1ccccc1)CC(O)(c1ccc(Cl)cc1)c1ccc(Cl)cc1` (stereo not given), the Potency was inconclusive: 8.91 µM [activator, partial curve].
`Cc1cc(Cl)ccc1NC(=O)CSc1nc2c(c(=O)[nH]1)CCC2` was tested, and the Potency was inconclusive: 79.4 µM [activator, partial curve, poor fit].
For `Cn1c(SCC(=O)NC2CCCCC2)nnc1-c1ccncc1`, the activation was inconclusive: 35.9% [activator].
`COC(=O)c1cc(NC(=O)c2cc(C(C)(C)C)nn2Cc2ccc(F)cc2)ccc1N1CCOCC1` was tested, and the Potency was “inactive”.
With `COc1ccc(NC(=S)NCc2cccnc2)cc1OC` the Potency was inconclusive: 70.8 µM [activator, partial curve, poor fit].
For `CCN(c1ccccc1)S(=O)(=O)c1ccc(OC)c(NC(=O)C2CC2)c1`, the activation was inconclusive: 33.1% [activator].
In the case of `Cc1ccc(C(O)c2ncc(-c3ccccc3C(F)(F)F)[nH]2)cc1F` (stereo not given), the Potency is reported as “inactive”.
With `N/C(Cc1ccc(Cl)cc1)=N\OC(=O)c1ccccc1` the Potency was inconclusive: 50.1 µM [activator, single point].
In the case of `Cc1cccc(Cn2cnc3c(nnn3Cc3ccc(Cl)cc3)c2=O)c1`, the Potency is reported as inconclusive: 39.8 µM [activator, single point].
With `CC(=O)c1cccc(NC(=O)N2C3CCC2CC(O)(c2cccnc2)C3)c1` (stereo not given) the Potency was “inactive”.
With `COc1cccc(-c2cc(C(=O)N3CCN(C(=O)c4ccco4)CC3)on2)c1` the Potency was inconclusive: 96.5 µM [activator, partial curve].
